The data set in a line: general procedure: Fmoc solid-phase peptide synthesis; rink amide resin (CS Bio); HATU/DIPEA. As to conditions: conjugation step.

Strings that start with PEPTIDE1 are HELM notation: dots part the residues, brackets hold end groups and non-standard residues.

“PEPTIDE1{R.G.D.[dF].[Lys_isoindolyl]}|CHEM1{[DM1]}$PEPTIDE1,PEPTIDE1,1:R1-5:R2|PEPTIDE1,CHEM1,5:R3-1:R1$$$V2.0” yielded a conjugation yield of 51% isolated yield. The figure for “PEPTIDE1{R.G.D.[dF].[Pen]}|CHEM1{[IsoindolylEtS]}|CHEM2{[DM1]}$PEPTIDE1,PEPTIDE1,1:R1-5:R2|PEPTIDE1,CHEM1,5:R3-1:R1|CHEM1,CHEM2,1:R2-1:R1$$$V2.0” is 46% isolated yield.

For the origin of these results see US20260098054A1 (priority 2022, published 2026).
